Measured values from patent publication US20220119824A1.
No constants are given. Whether binding was seen depends on the method and setting. Some results given as binding are weak or reduced against the parent protein; the word gives no strength.

Chains of the proteins cited; added tags and fusions are not shown. Residues count along the entry.
UniProt Q9NYJ7, residues 27-479: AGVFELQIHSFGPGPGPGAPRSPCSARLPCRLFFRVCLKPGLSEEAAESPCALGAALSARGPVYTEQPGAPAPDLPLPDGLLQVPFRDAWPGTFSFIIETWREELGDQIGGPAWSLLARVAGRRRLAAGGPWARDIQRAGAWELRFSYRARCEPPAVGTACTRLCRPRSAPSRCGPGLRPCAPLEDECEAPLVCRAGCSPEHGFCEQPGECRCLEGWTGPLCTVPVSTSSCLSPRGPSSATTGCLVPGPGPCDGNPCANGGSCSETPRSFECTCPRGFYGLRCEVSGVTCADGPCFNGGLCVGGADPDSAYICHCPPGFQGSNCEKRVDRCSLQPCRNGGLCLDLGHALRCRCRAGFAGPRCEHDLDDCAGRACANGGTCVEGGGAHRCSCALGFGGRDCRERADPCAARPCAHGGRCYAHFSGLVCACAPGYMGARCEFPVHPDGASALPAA

Assays:
[1] = target: Human DLL3 (R&D Systems) (human) (UniProt Q9NYJ7); experiment: bridging ELISA for binding to DLL3 and CD3 in the same assay, HEK293T supernatants
[2] = target: Human DLL3 (R&D Systems) (human) (UniProt Q9NYJ7); experiment: bridging ELISA for binding to DLL3 and CD3 in the same assay, HEK293T supernatant and purified BiTE

Binder	binding [1]	binding [2]
SC16.34 DLL3HL×CD3HL BiTE (bispecific antibody) QIQLVQSGPELKRPGETVKISCKASGYTFTNYGMNWVKQAPGKGLKWMGWINTYTGDPTYADDFKGRFAFSLETSASTAYLQINNLKNEDTATYFCARIGGNSPSDYWGQGTSLTVSSGGGGSGGGGSGGGGSSIVMTQTPKFLLVSAGDRVTITCKASQSVSNDVAWYQQKPGQSPKLLIYYASNRYSGVPDRFTGSGYGTDFTFTISTVQAEDLAVYFCQQDYSSPWTFGGGTKLEIKGGGGSEVQLVESGGGLVQPGKSLKLSCEASGFTFSGYGMHWVRQAPGRGLESVAYITSSSINIKYADAVKGRFTVSRDNAKNLLFLQMNILKSEDTAMYYCARFDWDKNYWGQGTMVTVSSGGGGSGGGGSGGGGSDIQMTQSPSSLPASLGDRVTINCQASQDISNYLNWYQQKPGKAPKLLIYYTNKLADGVPSRFSGSGSGRDSSFTISSLESEDIGSYYCQQYYNYPWTFGPGTKLEIKDYKDDDDK	binds	
SC16.34 DLL3LH×CD3HL BiTE (bispecific antibody) SIVMTQTPKFLLVSAGDRVTITCKASQSVSNDVAWYQQKPGQSPKLLIYYASNRYSGVPDRFTGSGYGTDFTFTISTVQAEDLAVYFCQQDYSSPWTFGGGTKLEIKGGGGSGGGGSGGGGSQIQLVQSGPELKRPGETVKISCKASGYTFTNYGMNWVKQAPGKGLKWMGWINTYTGDPTYADDFKGRFAFSLETSASTAYLQINNLKNEDTATYFCARIGGNSPSDYWGQGTSLTVSSGGGGSEVQLVESGGGLVQPGKSLKLSCEASGFTFSGYGMHWVRQAPGRGLESVAYITSSSINIKYADAVKGRFTVSRDNAKNLLFLQMNILKSEDTAMYYCARFDWDKNYWGQGTMVTVSSGGGGSGGGGSGGGGSDIQMTQSPSSLPASLGDRVTINCQASQDISNYLNWYQQKPGKAPKLLIYYTNKLADGVPSRFSGSGSGRDSSFTISSLESEDIGSYYCQQYYNYPWTFGPGTKLEIKDYKDDDDK		binds
